# The other results are listed elsewhere or left out.
# Biological target: T1, OsSMF1 (Oryza sativa, UniProt Q6ZLB0 1-436)
# T1 sequence: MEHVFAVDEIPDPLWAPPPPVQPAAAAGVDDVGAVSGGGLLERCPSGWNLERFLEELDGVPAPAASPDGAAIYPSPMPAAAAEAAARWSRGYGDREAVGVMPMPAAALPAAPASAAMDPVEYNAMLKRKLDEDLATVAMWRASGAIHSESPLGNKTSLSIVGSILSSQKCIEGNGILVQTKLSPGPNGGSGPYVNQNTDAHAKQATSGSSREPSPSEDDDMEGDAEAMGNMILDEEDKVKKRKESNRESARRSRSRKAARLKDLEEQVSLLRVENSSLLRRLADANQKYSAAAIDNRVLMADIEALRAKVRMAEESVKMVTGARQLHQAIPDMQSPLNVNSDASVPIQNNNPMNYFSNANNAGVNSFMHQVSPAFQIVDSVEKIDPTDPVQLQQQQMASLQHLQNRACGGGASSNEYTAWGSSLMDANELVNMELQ
# Assay: protein-binding microarray (RPBM); PBS, 2% BSA, 51.3 ng/ul salmon testes DNA, 50 uM zinc acetate, 200 nM TF, 25 C, 1 h; high values mean tight binding
# Conditions: protein: recombinant; tags: N-terminal polyhistidine and DsRed monomer fusion (pET32a); chain copies: 2; label: CyDye5-dUTP incorporated in the synthesized complementary strand; 3' TTTTT single-stranded linker to array surface; dsDNA, one strand shown
# Procedure, shortened: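 Binding signal is reported as fluorescence intensity per feature (arbitrary units) from an Axon 4000B scanner. Incubation used 200 nM of each Ni–NTA-purified, N-terminally polyhistidine- and DsRed-fused transcription factor from E. coli BL21-CodonPlus on a double-stranded custom Agilent array for 1 h at 25 °C, with 50 µM zinc acetate in the buffer, followed by washing.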
row,Sequence,binding signal
1,CTTGCAAGGTGTTGGATTCGACTTGTATAACTTGAACTGCCGGAGTCACCTAGTGCAG,3520 fluorescence intensity (a.u.)
2,TCCCTCCTCCCCGTCGTCACAAGCCACGTCATCGATCCGCCGGAGTCACCTAGTGCAG,40000 fluorescence intensity (a.u.)
3,TCTTCTTTCTTGGTGGTGGTGAGTGTACTGCCTTTATCTGCGGAGTCACCTAGTGCAG,3440 fluorescence intensity (a.u.)
4,TCCTCACCTTCCTGCGCCTGAAAAGTTGGGGCCAATCCGGCGGAGTCACCTAGTGCAG,3460 fluorescence intensity (a.u.)
5,GACACCACCGCCGCCGCCGTCCTCGTCATCTCCAGATCGCCGGAGTCACCTAGTGCAG,9120 fluorescence intensity (a.u.)
6,GGATCCGTACGTGAGGGTGGGCCCCACACGTCAGCGAGGCCGGAGTCACCTAGTGCAG,12600 fluorescence intensity (a.u.)
7,CCTTTTGTCGATAAGTCACGATCATCAACTGAGAGCATTCCGGAGTCACCTAGTGCAG,19300 fluorescence intensity (a.u.)
8,AGAGAAGAGAGAAGAGAGAAGTGACGGGTGGGTCCCACGTCGGAGTCACCTAGTGCAG,3530 fluorescence intensity (a.u.)
9,AAGCGTAATAGCTCATCTTTTATCATGCCTGGTCGACATGCGGAGTCACCTAGTGCAG,4590 fluorescence intensity (a.u.)
10,TAGTAGCGTTCGATACTTCGGTATCAATTATCAAACTTACCGGAGTCACCTAGTGCAG,3490 fluorescence intensity (a.u.)
11,ACAGTACCCGTACTTTCGTGCCACGCTGGCACCGACAAAGCGGAGTCACCTAGTGCAG,9790 fluorescence intensity (a.u.)
12,AGGATGGGTTGATGGGAATGGAATATGACACGAGCCGTGTCGGAGTCACCTAGTGCAG,3160 fluorescence intensity (a.u.)
13,CACTTTAAGAGTTCTTCAATTTGTGTTTCACCGGGTTTCGCGGAGTCACCTAGTGCAG,3520 fluorescence intensity (a.u.)
14,ATAACGGTGCTAATCTACTGGTGACTGTGCCTGGTGGTGGCGGAGTCACCTAGTGCAG,4380 fluorescence intensity (a.u.)
15,CTTATTATGGTTATATGTGCAGGTATGGAGTAATAACTGACGGAGTCACCTAGTGCAG,46400 fluorescence intensity (a.u.)
16,ACCGTGACCCTGCCACCTCCTCCGGCGACCGGGGCAACCGCGGAGTCACCTAGTGCAG,3260 fluorescence intensity (a.u.)
17,TTGGTGGTGAAGGGGAGGGCGCATGCGACGTGGAGGGTGTCGGAGTCACCTAGTGCAG,7990 fluorescence intensity (a.u.)
18,ACGTTCATGGCCAGTAATTGTGTGACTTCACCGTCGGTCCCGGAGTCACCTAGTGCAG,4240 fluorescence intensity (a.u.)
19,ATTCGGCCTCGTGGCTATGTACGCTGAGTGTACGAACGTGCGGAGTCACCTAGTGCAG,4020 fluorescence intensity (a.u.)
20,AGCTTAGCTACTTATTAATTAGACAATTACTGTATGCATGCGGAGTCACCTAGTGCAG,29800 fluorescence intensity (a.u.)
21,AGCGCCGAGACCAACGGCCAGCCACGCAGCCTCCTCGACCCGGAGTCACCTAGTGCAG,4270 fluorescence intensity (a.u.)

# Pulled one by one from the entries so far (three):
row,Sequence,binding signal
9,AAGCGTAATAGCTCATCTTTTATCATGCCTGGTCGACATGCGGAGTCACCTAGTGCAG,4590 fluorescence intensity (a.u.)
19,ATTCGGCCTCGTGGCTATGTACGCTGAGTGTACGAACGTGCGGAGTCACCTAGTGCAG,4020 fluorescence intensity (a.u.)
10,TAGTAGCGTTCGATACTTCGGTATCAATTATCAAACTTACCGGAGTCACCTAGTGCAG,3490 fluorescence intensity (a.u.)

# (further entries)

row,Sequence,binding signal
1,ACCTATGTATAGTTAGTGTTGTCGTGGTGTAATTTCAACGCGGAGTCACCTAGTGCAG,3140 fluorescence intensity (a.u.)
2,TCAGCAAGTTGCCCATTCCTATTCTGCCTGACGCATCGTGCGGAGTCACCTAGTGCAG,3150 fluorescence intensity (a.u.)
3,CACAATATTAATATTATGGCTTAAATAATTGGTTTTACGACGGAGTCACCTAGTGCAG,24100 fluorescence intensity (a.u.)
4,ATAAGGGCCAGCATGTACGTGACAGTGCCATTCGGGCCCACGGAGTCACCTAGTGCAG,4850 fluorescence intensity (a.u.)
5,AGTTTCACAACCCGCGCAGACACTGGCATCGGTGTCATCGCGGAGTCACCTAGTGCAG,3940 fluorescence intensity (a.u.)
6,AGAGGAATAAGAGGAAGGGGAGGAAATTTTCGAAACGCGACGGAGTCACCTAGTGCAG,26700 fluorescence intensity (a.u.)
7,TATGATGATTAATGATATAATAATAAGTATGACGGACAATCGGAGTCACCTAGTGCAG,4790 fluorescence intensity (a.u.)
8,CAATTTCAGAAACCAAGAGATTCCCCTTCGCCAACTCAGCCGGAGTCACCTAGTGCAG,7000 fluorescence intensity (a.u.)
9,TTGATTAATATTATGTGTACACAAAGTTGTCACCATCCATCGGAGTCACCTAGTGCAG,3970 fluorescence intensity (a.u.)
10,GGGCAGCCACCTCTCCTGGGTCCCCTCCACCTCCTCCTACCGGAGTCACCTAGTGCAG,24600 fluorescence intensity (a.u.)
11,GGAAGCGGCTGCTGACAATGGGGATTAGATAGGCTAAGGGCGGAGTCACCTAGTGCAG,3700 fluorescence intensity (a.u.)
12,GCTCACGAGCCCCACGCCTCGATCCGTCCATACAGCGACGCGGAGTCACCTAGTGCAG,30100 fluorescence intensity (a.u.)
13,TTTACAAGTGATACAACAACGTGGTTTGCATAATGCGTCACGGAGTCACCTAGTGCAG,3960 fluorescence intensity (a.u.)
14,ACTGAACACGGCTCGGTCCACGTACGAAGTCTTCGCGGAGCGGAGTCACCTAGTGCAG,5430 fluorescence intensity (a.u.)
15,CAACATTGAAAATATCAGGTTGGGGCGCATGACTGTATCACGGAGTCACCTAGTGCAG,5230 fluorescence intensity (a.u.)
16,TTGGGTGGGCCGTCAAACGTACGTATGTAAGCCCATGGTTCGGAGTCACCTAGTGCAG,3970 fluorescence intensity (a.u.)
17,TGTAGACGGCCGGTCACACTATCTTTATGCTGAGTCATGTCGGAGTCACCTAGTGCAG,12000 fluorescence intensity (a.u.)
18,CTCCTCGTCGTCGTCGTCGTCGTCGTCGTCTCCTCGCCGCCGGAGTCACCTAGTGCAG,4430 fluorescence intensity (a.u.)
19,GGGATAGAACTGGGCCTGAAGGCCTGATCTGTCAAGATATCGGAGTCACCTAGTGCAG,3400 fluorescence intensity (a.u.)
20,GAAGGCAAATGTCTTACTTGACCACCAGCTGTGGCATGTGCGGAGTCACCTAGTGCAG,3340 fluorescence intensity (a.u.)
21,GCCTCCATAGGTAAGGTGTTAGTGGGAGAGAATAAGATGACGGAGTCACCTAGTGCAG,4670 fluorescence intensity (a.u.)
